Test results: patent US20220153854A1
No constants are given. Whether binding was seen depends on the method and setting. Some binding calls cover weakened binding; strength is not graded here.

Chains of the proteins cited; added tags and fusions are not shown. Residues count along the entry.
UniProt P35225, residues 35-146: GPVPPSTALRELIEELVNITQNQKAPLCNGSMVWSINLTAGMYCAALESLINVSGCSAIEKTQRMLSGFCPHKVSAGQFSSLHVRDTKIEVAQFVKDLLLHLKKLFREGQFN

Assays:
human IL-13 (human) [1] = molecular target: human IL-13 (human) (UniProt P35225); test: flow cytometry on CHO-KI cells expressing human OX40L loaded with 100 nM F027100187, dilution series of soluble human IL-13 in the presence of 30 uM HSA (bridging / simultaneous binding; x axis printed as 'Concentration human IL-13-Fc (M)', text says biotinylated IL-13)
human IL-13 (human) [2] = molecular target: human IL-13 (human) (UniProt P35225); test: flow cytometry on CHO-KI cells expressing human OX40L, 100 nM construct, biotinylated IL-13 titrated, 30 µM HSA
[3] = molecular target: cyno OX40L (cynomolgus monkey) (UniProt G7NVH7); test: Gyrolab in-solution affinity
human IL-13 (human) [4] = molecular target: human IL-13 (human) (UniProt P35225); test: Gyrolab in-solution affinity
human IL-13 (human) [5] = molecular target: human IL-13 (human) (UniProt P35225); test: flow cytometry on CHO-Ki cells expressing human OX40L

Measured: binding

B1: ISVD construct F027100187 (protein)
chain: DVQLVESGGGVVQPGGSLRLSCAASRSIGRYDRMGWYRHRPGEPRELVATITGGSSINYGDSVKGRFTISIDNSKNTVYLQMNSLRPEDTALYYCNFNKYQISRDTWGQGTLVTVSSGGGGSGGGSEVQLVESGGGVVQPGGSLRLSCAASGRTFSSYRMGWFRQAPGKEREFVAALSGDGYSTYTANSVKGRFTISRDNSKNTVYLQMNSLRPEDTALYYCAAKLQYVSGWSYDYPYWGQGTLVTVSSGGGGSGGGSEVQLVESGGGVVQPGGSLRLSCAASGFTFRSFGMSWVRQAPGKGPEWVSSISGSGSDTLYADSVKGRFTISRDNSKNTLYLQMNSLRPEDTALYYCTIGGSLSRSSQGTLVTVSSGGGGSGGGSEVQLVESGGGVVQPGGSLRLSCAASGFTFNNYAMKWVRQAPGKGLEWVSSITTGGGSTDYADSVKGRFTISRDNSKNTLYLQMNSLRPEDTALYYCANVPFGYYSEHFSGLSFDYRGQGTLVTVSSA
binds: all assays above
